No constants are given. Whether binding was seen depends on the method and setting. Binding seen in cells or lysates may run through a third protein. Some entries that bind do so weakly or less than the wild type. For some assays here: Where a sequence is shown, tags or fusion partners need not be part of it.
What was measured:
Assay in all cases: split reporter
[1] = target: GPR83-LgBiT (C-terminally LgBiT-fused full-length human GPR83) (human) (UniProt Q9NYM4)
[2] = target: sLgBiT-GHSR1a (sLgBiT-fused growth hormone secretagogue receptor type 1a) (UniProt Q92847)
[3] = target: sLgBiT-GPR83 (N-terminally sLgBiT-fused mature human GPR83) (human) (UniProt Q9NYM4)
[4] = target: T1, sLgBiT-RXFP3 (sLgBiT-fused relaxin family peptide receptor 3) (UniProt Q9NSD7)
T1 sequence: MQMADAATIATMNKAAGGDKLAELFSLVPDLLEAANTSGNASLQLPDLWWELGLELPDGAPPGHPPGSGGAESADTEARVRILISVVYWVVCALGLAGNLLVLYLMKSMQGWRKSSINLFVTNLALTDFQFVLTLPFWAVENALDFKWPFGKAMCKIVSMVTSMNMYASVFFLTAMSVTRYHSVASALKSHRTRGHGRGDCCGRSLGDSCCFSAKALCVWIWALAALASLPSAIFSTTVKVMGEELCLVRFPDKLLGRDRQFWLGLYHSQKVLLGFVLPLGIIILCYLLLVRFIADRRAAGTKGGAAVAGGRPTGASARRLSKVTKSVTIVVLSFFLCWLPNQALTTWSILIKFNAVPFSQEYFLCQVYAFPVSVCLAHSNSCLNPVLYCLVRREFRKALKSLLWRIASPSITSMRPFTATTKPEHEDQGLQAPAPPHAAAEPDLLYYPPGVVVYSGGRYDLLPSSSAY

By UniProt entry, the sequences of proteins in these tests, tags left out. Where a name states a change or a piece, a line headed by the entry shows the natural chain unless it says otherwise. Chains listed by the source or under a name are the forms on record and can include a tag or linker. Residues count along the entry.
UniProt Q9NYM4, residues 17-423: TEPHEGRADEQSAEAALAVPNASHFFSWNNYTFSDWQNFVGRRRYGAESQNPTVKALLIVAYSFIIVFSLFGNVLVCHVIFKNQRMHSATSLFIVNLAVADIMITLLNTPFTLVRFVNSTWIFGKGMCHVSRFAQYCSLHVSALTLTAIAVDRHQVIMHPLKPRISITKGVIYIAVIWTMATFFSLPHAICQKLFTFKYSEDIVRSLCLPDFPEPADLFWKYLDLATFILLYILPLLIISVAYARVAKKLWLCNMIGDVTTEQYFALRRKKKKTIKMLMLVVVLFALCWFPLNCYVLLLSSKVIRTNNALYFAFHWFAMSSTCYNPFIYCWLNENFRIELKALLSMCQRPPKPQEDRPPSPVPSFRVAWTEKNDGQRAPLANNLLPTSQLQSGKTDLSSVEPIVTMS
UniProt Q92847: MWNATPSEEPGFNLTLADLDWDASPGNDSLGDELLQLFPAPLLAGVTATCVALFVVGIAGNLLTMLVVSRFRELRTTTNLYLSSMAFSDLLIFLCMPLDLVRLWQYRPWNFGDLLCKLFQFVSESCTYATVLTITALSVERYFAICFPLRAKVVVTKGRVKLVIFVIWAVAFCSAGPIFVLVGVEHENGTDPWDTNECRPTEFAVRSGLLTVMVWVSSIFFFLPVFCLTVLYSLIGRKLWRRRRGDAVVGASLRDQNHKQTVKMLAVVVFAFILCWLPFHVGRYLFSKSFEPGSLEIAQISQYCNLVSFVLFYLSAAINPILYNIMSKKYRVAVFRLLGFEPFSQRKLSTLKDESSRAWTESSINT
SmBiT-FAM237A (A0A1B0GTK4, residues 34-113): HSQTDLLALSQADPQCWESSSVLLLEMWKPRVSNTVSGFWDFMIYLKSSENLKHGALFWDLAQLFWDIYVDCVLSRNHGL
[G79A]FAM237A (A0A1B0GTK4, form named): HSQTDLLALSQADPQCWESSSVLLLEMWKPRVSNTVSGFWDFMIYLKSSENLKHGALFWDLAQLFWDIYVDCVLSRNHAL
[H78A]FAM237A (A0A1B0GTK4, form named): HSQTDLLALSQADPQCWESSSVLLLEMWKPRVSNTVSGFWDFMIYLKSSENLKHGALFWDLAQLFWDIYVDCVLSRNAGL
[L80A]FAM237A (A0A1B0GTK4, form named): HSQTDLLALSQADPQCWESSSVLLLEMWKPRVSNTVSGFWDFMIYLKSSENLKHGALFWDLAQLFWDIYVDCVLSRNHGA
UniProt P06307: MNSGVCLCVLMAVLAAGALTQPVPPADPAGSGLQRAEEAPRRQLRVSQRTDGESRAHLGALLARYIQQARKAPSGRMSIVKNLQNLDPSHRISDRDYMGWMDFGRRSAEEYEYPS

Substance	binding [3]	further results
SmBiT-ARRB2 (N-terminally SmBiT-fused human β-arrestin 2) (from UniProt P32121-1 1-409)	–	binding [1]: binds
SmBiT-FAM237A (from UniProt A0A1B0GTK4 34-113) (ligand)	binds	binding [2]: no binding; binding [4]: no binding
[G79A]FAM237A (from UniProt A0A1B0GTK4 34-113) (ligand)	binds weakly	–
[H78A]FAM237A (from UniProt A0A1B0GTK4 34-113) (ligand)	binds weakly	–
[L80A]FAM237A (from UniProt A0A1B0GTK4 34-113) (ligand)	binds weakly	–
proCCK56-63 (procholecystokinin-derived peptide) (from UniProt P06307 56-63)	no binding	–

Reference: paper doi:10.1101/2022.09.27.509696
